Results are given in words; binding and its absence hold for the method and conditions named. Some binding calls cover weakened binding; strength is not graded here. For part of these data: Tags and fused reporters may be left off the sequences shown.
How the values were obtained:
[1] = molecular target: T1, PSCA on cells (PSCA-transfected B-cell line, LNCaP prostate cancer cells, SKW-PSCA+ cells) (human) (UniProt O43653); assay: flow cytometry on a B-cell line stably transfected to express PSCA; minibody at 2 ug/ml, goat anti-hFc Alexa 488
T1 sequence (looked up): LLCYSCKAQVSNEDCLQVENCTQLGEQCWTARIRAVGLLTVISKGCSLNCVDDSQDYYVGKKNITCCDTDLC

[2] = molecular target: T1, PSCA on cells (PSCA-transfected B-cell line, LNCaP prostate cancer cells, SKW-PSCA+ cells) (human); assay: immunofluorescence microscopy on antigen-positive cells [sheet 1]
[3] = molecular target: T1, PSCA on cells (PSCA-transfected B-cell line, LNCaP prostate cancer cells, SKW-PSCA+ cells) (human); assay: immunofluorescence microscopy on non-permeabilized LNCaP cells; Alexa488 goat anti-human IgG
[4] = molecular target: T1, PSCA on cells (PSCA-transfected B-cell line, LNCaP prostate cancer cells, SKW-PSCA+ cells) (human); assay: flow cytometry on PSCA-expressing LNCaP human prostate cancer cells; minibody at 2 ug/ml, goat anti-hFc Alexa 488
[5] = molecular target: T1, PSCA on cells (PSCA-transfected B-cell line, LNCaP prostate cancer cells, SKW-PSCA+ cells) (human); assay: immunofluorescence microscopy and FACS on PSCA-positive cells
purified PSCA-Fc = molecular target: T2, purified PSCA-Fc (UniProt O43653 12-86); assay: competition ELISA on plates coated with PSCA-Fc; the labelled competitor is not named [sheet 2]
T2 construct: The construct is described only by a literature citation; not shown: Fc part not described
T2 sequence (looked up): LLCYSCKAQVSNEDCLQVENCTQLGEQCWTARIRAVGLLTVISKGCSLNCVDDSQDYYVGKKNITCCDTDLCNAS

[6] = molecular target: T1, PSCA on cells (PSCA-transfected B-cell line, LNCaP prostate cancer cells, SKW-PSCA+ cells) (human); assay: flow cytometry on PSCA-positive cells [sheet 2]
[7] = molecular target: T1, PSCA on cells (PSCA-transfected B-cell line, LNCaP prostate cancer cells, SKW-PSCA+ cells) (human); assay: flow cytometry and immunofluorescence on PSCA-expressing cells
[8] = molecular target: T1, PSCA on cells (PSCA-transfected B-cell line, LNCaP prostate cancer cells, SKW-PSCA+ cells) (human); assay: immunofluorescence microscopy on antigen-positive cells
[9] = molecular target: T1, PSCA on cells (PSCA-transfected B-cell line, LNCaP prostate cancer cells, SKW-PSCA+ cells) (human); assay: immunofluorescence on PSCA-positive prostate cancer cell lines
[10] = molecular target: T1, PSCA on cells (PSCA-transfected B-cell line, LNCaP prostate cancer cells, SKW-PSCA+ cells) (human); assay: flow cytometry on PSCA-positive cells (cell line not named on the sheet) [sheet 2]
[11] = molecular target: T1, PSCA on cells (PSCA-transfected B-cell line, LNCaP prostate cancer cells, SKW-PSCA+ cells) (human); assay: FACS on PSCA-positive cells

Measured: binding

B1: humanized anti-PSCA minibody (2B3 scFv-CH3 dimer) (other)
chain: DIQLTQSPSSLSASVGDRVTITCSASSSVRFIHWYQQKPGKAPKRLIYDTSKLASGVPSRFSGSGSGTDFTLTISSLQPEDFATYYCQQWSSSPFTFGQGTKVEIKGSTSGGGSGGGSGGGGSSEVQLVESGGGLVQPGGSLRLSCAASGFNIKDYYIHWVRQAPGKGLEWVAWIDPENGDTEFVPKFQGRATISADTSKNTAYLQMNSLRAEDTAVYYCKTGGFWGQGTLVTVSSEPKSCDKTHTCPPCGGGSSGGGSGGQPREPQVYTLPPSRDELTKNQVSLTCLVKGFYPSDIAVEWESNGQPENNYKTTPPVLDSDGSFFLYSKLTVDKSRWQQGNVFSCSVMHEALHNHYTQKSLSLSPGK
notes: Covalent dimer of about 95 kDa; also called 2B3 minibody; parental minibody
not listed: [9] | [10] | [11]
binds: all other assays above

B2: parental 2B3 anti-PSCA diabody (scFv dimer, eight amino acid linker) (scFv)
scFv: DIQLTQSPSSLSASVGDRVTITCSASSSVRFIHWYQQKPGKAPKRLIYDTSKLASGVPSRFSGSGSGTDFTLTISSLQPEDFATYYCQQWSSSPFTFGQGTKVEIKGGGSGGGSEVQLVESGGGLVQPGGSLRLSCAASGFNIKDYYIHWVRQAPGKGLEWVAWIDPENGDTEFVPKFQGRATISADTSKNTAYLQMNSLRAEDTAVYYCKTGGFWGQGTLVTVSS
notes: also called parental diabody; 2B3 diabody
binds: [9] | [10] | [11]

From patent US8940871 (University of California, dated 2015)
